Source: PMC11958651
Results are given in words; binding and its absence hold for the method and conditions named. In cells and extracts the contact can be indirect. Some results given as binding are weak or reduced against the parent protein; the word gives no strength. Blank lines part the entries; values can stand above or below the molecule they belong to.

Protein sequences, listed by entry. Tags and fused reporters are not part of them.
UniProt Q8CD54: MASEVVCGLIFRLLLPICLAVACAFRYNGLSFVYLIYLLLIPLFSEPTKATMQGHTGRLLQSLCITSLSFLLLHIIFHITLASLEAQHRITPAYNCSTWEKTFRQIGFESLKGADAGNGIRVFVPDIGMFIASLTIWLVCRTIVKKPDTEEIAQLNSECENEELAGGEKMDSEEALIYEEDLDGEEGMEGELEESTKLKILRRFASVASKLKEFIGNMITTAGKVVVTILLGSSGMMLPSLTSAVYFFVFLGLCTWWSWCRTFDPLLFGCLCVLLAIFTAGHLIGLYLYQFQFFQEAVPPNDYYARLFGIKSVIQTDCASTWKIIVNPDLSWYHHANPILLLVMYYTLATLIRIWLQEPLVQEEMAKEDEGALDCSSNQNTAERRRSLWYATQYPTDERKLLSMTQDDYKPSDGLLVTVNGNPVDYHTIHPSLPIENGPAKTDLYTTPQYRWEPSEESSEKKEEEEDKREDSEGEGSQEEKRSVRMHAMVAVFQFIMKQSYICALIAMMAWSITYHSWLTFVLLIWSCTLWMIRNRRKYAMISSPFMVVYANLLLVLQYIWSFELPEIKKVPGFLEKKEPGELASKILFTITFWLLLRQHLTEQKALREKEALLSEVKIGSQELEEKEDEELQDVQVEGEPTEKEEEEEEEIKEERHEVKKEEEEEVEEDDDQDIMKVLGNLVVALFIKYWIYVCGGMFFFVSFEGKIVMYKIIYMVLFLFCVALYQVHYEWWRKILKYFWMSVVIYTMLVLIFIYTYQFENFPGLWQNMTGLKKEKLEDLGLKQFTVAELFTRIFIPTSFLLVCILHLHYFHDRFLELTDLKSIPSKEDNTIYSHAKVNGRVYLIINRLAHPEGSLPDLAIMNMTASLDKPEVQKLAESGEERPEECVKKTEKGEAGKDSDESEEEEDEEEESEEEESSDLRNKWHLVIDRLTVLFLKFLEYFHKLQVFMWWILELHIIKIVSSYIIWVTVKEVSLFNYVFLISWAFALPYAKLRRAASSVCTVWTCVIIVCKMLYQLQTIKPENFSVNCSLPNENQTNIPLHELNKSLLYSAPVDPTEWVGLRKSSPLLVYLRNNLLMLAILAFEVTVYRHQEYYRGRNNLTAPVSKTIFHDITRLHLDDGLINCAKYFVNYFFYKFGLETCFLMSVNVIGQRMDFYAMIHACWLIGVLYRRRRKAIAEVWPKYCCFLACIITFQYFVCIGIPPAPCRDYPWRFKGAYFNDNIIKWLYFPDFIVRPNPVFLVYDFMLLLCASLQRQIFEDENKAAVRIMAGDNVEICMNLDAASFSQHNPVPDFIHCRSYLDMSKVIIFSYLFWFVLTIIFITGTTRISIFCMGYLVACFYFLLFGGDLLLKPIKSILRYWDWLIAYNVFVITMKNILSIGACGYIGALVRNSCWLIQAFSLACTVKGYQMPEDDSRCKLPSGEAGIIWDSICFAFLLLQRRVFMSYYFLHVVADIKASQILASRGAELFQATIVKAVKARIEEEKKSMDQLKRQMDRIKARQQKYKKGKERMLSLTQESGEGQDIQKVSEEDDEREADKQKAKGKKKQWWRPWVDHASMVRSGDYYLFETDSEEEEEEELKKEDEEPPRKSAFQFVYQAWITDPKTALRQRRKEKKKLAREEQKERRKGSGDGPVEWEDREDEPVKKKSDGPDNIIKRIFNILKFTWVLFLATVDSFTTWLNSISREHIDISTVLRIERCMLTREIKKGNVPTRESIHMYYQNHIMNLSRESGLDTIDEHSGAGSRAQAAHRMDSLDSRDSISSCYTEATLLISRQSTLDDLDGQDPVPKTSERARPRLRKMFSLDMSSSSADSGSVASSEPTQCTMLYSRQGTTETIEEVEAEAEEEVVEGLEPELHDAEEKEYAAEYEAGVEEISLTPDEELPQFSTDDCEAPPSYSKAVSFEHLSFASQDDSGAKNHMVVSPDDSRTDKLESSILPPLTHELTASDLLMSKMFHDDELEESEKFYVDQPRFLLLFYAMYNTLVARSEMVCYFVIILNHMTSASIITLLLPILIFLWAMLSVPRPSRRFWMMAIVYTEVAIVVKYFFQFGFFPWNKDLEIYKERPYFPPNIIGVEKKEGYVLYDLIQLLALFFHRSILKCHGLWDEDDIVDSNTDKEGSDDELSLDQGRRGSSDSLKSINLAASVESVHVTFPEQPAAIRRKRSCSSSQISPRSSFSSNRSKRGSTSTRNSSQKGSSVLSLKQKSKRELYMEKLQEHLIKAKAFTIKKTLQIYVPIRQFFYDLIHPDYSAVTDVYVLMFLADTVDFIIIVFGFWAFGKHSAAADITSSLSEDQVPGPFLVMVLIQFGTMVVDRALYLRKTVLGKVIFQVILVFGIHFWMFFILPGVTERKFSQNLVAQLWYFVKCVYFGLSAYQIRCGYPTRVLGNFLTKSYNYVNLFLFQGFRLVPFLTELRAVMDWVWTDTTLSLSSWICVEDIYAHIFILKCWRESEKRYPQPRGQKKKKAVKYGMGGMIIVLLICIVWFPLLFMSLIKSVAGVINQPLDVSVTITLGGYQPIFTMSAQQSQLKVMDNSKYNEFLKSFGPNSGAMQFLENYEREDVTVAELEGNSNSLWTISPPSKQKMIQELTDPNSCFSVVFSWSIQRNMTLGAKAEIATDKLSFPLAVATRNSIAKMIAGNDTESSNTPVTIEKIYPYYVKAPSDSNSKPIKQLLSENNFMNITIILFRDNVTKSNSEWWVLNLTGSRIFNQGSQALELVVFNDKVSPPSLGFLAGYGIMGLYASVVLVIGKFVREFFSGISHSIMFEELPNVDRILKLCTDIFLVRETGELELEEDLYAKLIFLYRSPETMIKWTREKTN

Molecular target: T1, LPHN2/ADGRL2 (mouse (endogenous in mouse utricles)) (UniProt Q8JZZ7)
T1 sequence: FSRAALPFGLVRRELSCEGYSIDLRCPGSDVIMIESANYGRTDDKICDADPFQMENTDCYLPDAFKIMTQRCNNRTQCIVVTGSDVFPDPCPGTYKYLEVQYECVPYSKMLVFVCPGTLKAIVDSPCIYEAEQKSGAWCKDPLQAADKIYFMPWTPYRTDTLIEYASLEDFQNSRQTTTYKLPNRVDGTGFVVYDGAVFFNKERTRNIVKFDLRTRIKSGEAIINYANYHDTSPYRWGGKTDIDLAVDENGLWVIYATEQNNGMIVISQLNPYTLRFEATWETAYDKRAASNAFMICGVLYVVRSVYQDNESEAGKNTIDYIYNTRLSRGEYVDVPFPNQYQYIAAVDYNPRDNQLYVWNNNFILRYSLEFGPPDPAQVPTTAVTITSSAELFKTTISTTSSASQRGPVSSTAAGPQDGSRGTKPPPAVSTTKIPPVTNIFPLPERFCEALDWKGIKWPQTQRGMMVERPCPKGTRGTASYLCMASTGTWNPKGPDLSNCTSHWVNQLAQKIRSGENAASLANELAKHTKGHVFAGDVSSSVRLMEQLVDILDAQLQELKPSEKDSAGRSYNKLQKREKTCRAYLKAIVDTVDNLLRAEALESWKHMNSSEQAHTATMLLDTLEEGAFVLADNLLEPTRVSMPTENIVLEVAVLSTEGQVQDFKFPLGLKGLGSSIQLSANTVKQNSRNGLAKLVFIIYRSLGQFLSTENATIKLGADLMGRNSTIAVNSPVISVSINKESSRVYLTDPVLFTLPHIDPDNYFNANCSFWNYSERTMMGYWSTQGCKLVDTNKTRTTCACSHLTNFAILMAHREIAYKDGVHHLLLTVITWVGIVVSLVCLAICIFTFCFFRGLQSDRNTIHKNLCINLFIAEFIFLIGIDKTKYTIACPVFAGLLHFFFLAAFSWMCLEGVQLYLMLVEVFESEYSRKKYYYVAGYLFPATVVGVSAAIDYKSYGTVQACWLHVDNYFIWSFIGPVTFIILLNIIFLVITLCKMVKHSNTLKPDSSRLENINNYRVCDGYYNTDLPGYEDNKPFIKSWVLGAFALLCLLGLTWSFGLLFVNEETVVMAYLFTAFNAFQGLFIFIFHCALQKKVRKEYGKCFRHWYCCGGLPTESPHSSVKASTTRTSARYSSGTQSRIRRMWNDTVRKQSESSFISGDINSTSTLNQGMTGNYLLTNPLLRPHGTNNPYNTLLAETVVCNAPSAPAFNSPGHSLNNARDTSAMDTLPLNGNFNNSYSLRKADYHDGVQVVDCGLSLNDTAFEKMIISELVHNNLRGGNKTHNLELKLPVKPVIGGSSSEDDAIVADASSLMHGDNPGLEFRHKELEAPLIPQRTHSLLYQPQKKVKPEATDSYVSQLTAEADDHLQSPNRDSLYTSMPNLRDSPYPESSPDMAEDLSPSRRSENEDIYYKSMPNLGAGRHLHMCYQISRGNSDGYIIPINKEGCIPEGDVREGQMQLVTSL
Assay: co-IP; lysates of WT mouse utricles in NP40 lysis buffer with phosphatase and protease inhibitors; immunoprecipitated with LPHN2-antibody-conjugated agarose overnight at 4 °C, washed with PBS, western blot

binding: no binding
Molecule: PIEZO2 (from UniProt Q8CD54 1-2822)

binding: binds
B1: transmembrane channel-like protein 1 (TMC1) (protein, UniProt Q8R4P5 1-757)
chain: MLQIQVEEKEEDTEESSSEEEEDKLPRRESLRPKRKRTRDVINEDDPEPEPEDEETRKAREKERRRRLRRGAEEEEEIDEEELERLKALLDENRQMIATVKCKPWKMEKKIEVLKEAKKFVSENEGALGKGKGKKWFAFKMMMAKKWAKFLRDFENFKAACVPWENKIKAIESQFGSSVASYFLFLRWMYGVNMVLFVLTFSLIMLPEYLWGLPYGSLPRKTVPRAEEASAANFGVLYDFNGLAQYSVLFYGYYDNKRTIGWLNFRLPLSYFLVGIMCIGYSFLVVLKAMTKNIGDDGGGDDNTFNFSWKVFCSWDYLIGNPETADNKFNSITMNFKEAIIEERAAQVEENIHLIRFLRFLANFFVFLTLGASGYLIFWAVKRSQEFAQQDPDTLGWWEKNEMNMVMSLLGMFCPTLFDLFAELEDYHPLIALKWLLGRIFALLLGNLYVFILALMDEINNKIEEEKLVKANITLWEANMIKAYNESLSGLSGNTTGAPFFVHPADVPRGPCWETMVGQEFVRLTVSDVLTTYVTILIGDFLRACFVRFCNYCWCWDLEYGYPSYTEFDISGNVLALIFNQGMIWMGSFFAPSLPGINILRLHTSMYFQCWAVMCCNVPEARVFKASRSNNFYLGMLLLILFLSTMPVLYMIVSLPPSFDCGPFSGKNRMFEVIGETLEHDFPSWMAKILRQLSNPGLVIAVILVMVLTIYYLNATAKGQKAANLDLKKKMKQQALENKMRNKKMAAARAAAAAGGQ
